This is a selection; strong and weak results do not stand in their true shares. Records with an inconclusive call do not appear. The source made the active and inactive calls. Calls come from the whole dose curve; as a rule, active = well fitted cell-killing curve with a large enough effect; inconclusive = small, poorly fitted or top-dose-only effect; inactive = flat fitted curve, though single readings scatter.

Assay [1] is described as follows: Quantitative highthroughput screen to assess conditional lethalithy of P12 Ichikawa cells grown in Human Plasma-Like Medium with dialyzed fetal bovine serum (HPLM+ds) (AID 1963879). The following applies: viability, ATP luminescence, 48 h. An excerpt: (§1) Assay Provider: Jason Cantor Ph.D.
(§2) Department of Biochemistry
(§3) University of Wisconsin-Madison, Madison, WI, USA
(§4) Chemical screening studies have identified drug sensitivities across hundreds of cancer cell lines but most putative therapeutics fail to translate. Discovery and development of drug candidates in models that more accurately reflect nutrient levels in human blood is a major challenge. Here we performed high-throughput screens in conventional versus Human Plasma-Like Medium (HPLM) to identify compounds that were "missed" when screening using the artificial culture condition. Sets of conditional anticancer compounds spanned phases of clinical development and included non-oncology drugs were assessed. […] We also traced conditional phenotypes for several chemotherapeutics to availability of HPLM-specific metabolites and confirmed others for compounds whose reported targets are encoded by nonessential genes. Our findings establish generalizable strategies for exploiting conditional lethality in HPLM to reveal therapeutic candidates and mechanisms of action in cancer cells. […]
(§5) 6; Detection; Luminescence, Viewlux PerkinElmer. […]
(§6) 6. The luminescence signal was measured using a ViewLux (PerkinElmer) multiplate reader with a 2 second exposure time per plate. […]

Assay [2] in a line: Quantitative highthroughput screen to assess conditional lethalithy of P12 Ichikawa cells grown in RPMI1640 with dialyzed fetal bovine serum (RPMI+ds) (AID 1963880). The note with it: P12-Ichikawa viability, ATP luminescence, 48 h.
Source text: as §1, §2, §3, §4, §5, §6

A short description of assay [3]: Quantitative highthroughput screen to assess conditional lethalithy of P12 Ichikawa cells grown in RPMI1640 with untreated serum (RPMI+s) (AID 1963881). The following applies: viability, ATP luminescence, 48 h.
Source text: as §1, §2, §3, §4, §5, §6
Note: nearly all actives have a fitted effect of over 35% in size.
Potency is the fitted concentration of half-maximal effect.

As to `CC(C)[N+]1(C)[C@@H]2CC[C@H]1CC(OC(=O)C(CO)c1ccccc1)C2` (some centres undefined), the Potency was active: 4.18 µM in assay [1], active: 9.35 µM in assay [2] and active: 11.8 µM in assay [3].
Consider `NCCCC(O)(P(=O)(O)O)P(=O)(O)O`, for which the Potency in assay [1] was active: 9.35 µM.

The record behind these values is PubChem BioAssay (NCATS).
